Assay results as given in PubChem BioAssay AID743266 (National Center for Advancing Translational Sciences (NCATS), 2014).
Among all 410,000 compounds or so, about 310 (0.076%) were called active. This list was built around the results that the source calls inconclusive (neither active nor inactive); the mix of calls is not that of the screen. Calls follow the shape of the dose curve; as a rule, active = well fitted activation curve with a large enough effect; inconclusive = small, poorly fitted or top-dose-only effect, or another doubt; inactive = no such curve, though single readings can be large or run the other way. Where the call is inconclusive, the potency comes from a doubtful curve fit.

Sequences of proteins named here, by UniProt entry; tags and fusion partners are left off.
UniProt Q03431, whole entry, looked up: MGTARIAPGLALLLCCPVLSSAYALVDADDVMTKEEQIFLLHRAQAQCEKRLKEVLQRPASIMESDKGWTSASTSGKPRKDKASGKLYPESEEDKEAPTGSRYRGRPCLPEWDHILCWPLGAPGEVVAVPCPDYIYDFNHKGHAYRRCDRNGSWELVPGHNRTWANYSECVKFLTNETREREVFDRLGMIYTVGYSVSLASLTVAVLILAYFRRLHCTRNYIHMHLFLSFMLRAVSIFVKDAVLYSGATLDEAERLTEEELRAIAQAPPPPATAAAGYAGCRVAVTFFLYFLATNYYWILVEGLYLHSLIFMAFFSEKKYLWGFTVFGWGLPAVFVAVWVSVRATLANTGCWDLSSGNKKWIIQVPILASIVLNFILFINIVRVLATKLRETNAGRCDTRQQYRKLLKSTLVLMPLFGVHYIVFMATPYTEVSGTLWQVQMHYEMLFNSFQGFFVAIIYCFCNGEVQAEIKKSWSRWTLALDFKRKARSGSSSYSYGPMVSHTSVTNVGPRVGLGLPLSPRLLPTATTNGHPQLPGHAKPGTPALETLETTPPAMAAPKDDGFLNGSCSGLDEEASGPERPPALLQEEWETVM

biological target: Parathyroid hormone/parathyroid hormone-related peptide receptor (Homo sapiens) (UniProt Q03431); assay: qHTS for PTHR1 Agonists: Primary Screen; conditions: HEK293 GP2 PTHR1 cells, GloSensor cAMP luminescence, 1 h; activation: at 115 µM (top of the series) unless noted; series mostly up to 115 µM; also: nearly all actives have a fitted effect of over 55% in size
Method in brief: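 HEK-293-derived GP2 cells expressing PTHR1 and a GloSensor cAMP reporter, 3,000/well, plated overnight, given luciferin plus IBMX (each 0.5 mM as added) for 1 h at 37 °C, then compound for 1 h at 37 °C. Luminescence was read after 15 min at room temperature.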
Potency is read from the fitted curve at half-maximal effect.

Potency, inconclusive:
Cc1nn(C(C)C(=O)NCc2ccc(OC(C)C)cc2)c(=O)c2c1sc1ccccc12 (configuration not stated) 31.6 µM [activator, partial curve, poor fit], COC(=O)CNc1nc(Cl)nc(NC2CCCCC2)n1 5.01 µM [activator, full curve, poor fit], COc1ccc(CC(=O)N/N=C/c2ccc(C)s2)cc1 141 µM [activator, single point], O=C(Cn1nc2c(cc1=O)CCCC2)NCc1ccc(Cl)cc1 12.6 µM [activator, partial curve], COc1cc(SC)ccc1C(=O)Nc1nc(C)cc(C)n1 14.1 µM [activator, full curve, poor fit], COc1cccc2cc(-c3nc4sc5c(c4c(=O)[nH]3)CCC(C(C)(C)C)C5)c(=O)oc12 (configuration not stated) 50.1 µM [activator, partial curve, poor fit], CC[C@@H](C)[C@@H]1CN([C@@H](CN2CCC[C@H]2CN2C(N)=NC[C@@H]2Cc2ccccc2)C(C)C)C(=N)N1CCCC1CCCC1 20 µM [activator, single point], O=C(CCC(=O)c1ccc(Br)cc1)Nc1cccc(C(F)(F)F)c1 44.7 µM [activator, single point], Cc1c(C)n(Cc2ccc(Cl)cc2)c2ccc(C(=O)N3CCN(c4ccccc4F)CC3)cc12 20 µM [activator, partial curve, poor fit], COc1cc(C2CC(=O)Nc3cc4c(cc32)OCO4)cc(OC)c1O (configuration not stated) 15.8 µM [activator, partial curve], C=CC(=O)Nc1cccc(Nc2nc(N[C@H]3CC[C@H](N(C)C)CC3)nc3c2ncn3C(C)C)c1 50.1 µM [activator, partial curve, poor fit], CCc1c(C)nc2ncnn2c1NCCc1ccc(OC)c(OC)c1 5.01 µM [activator, single point], CCN(CC#CCC1(O)c2ccccc2-c2ccccc21)C(C)C 8.91 µM [activator, full curve, poor fit], COc1ccc(C)cc1NC(=O)CNC(=O)[C@@H]1Cc2ccccc2CN1 39.8 µM [activator, partial curve], O=C1c2ccc([N+](=O)[O-])cc2C(=O)N1c1ccc(Cl)cn1 14.1 µM [activator, partial curve, poor fit], CNc1nc(-c2ccccc2)c2sccc2n1 10 µM [activator, full curve, poor fit], Cc1cc(C)nc(N2CCC(C(=O)NC3CCCc4ccccc43)CC2)n1 (configuration not stated) 39.8 µM [activator, single point], O=C1CC(=C2c3ccccc3-c3ccccc32)C(=O)N1CCN1CCN(c2ccccc2)CC1 39.8 µM [activator, single point], CN1CCN(c2ccccc2NC(=O)Cc2ccc(Cl)cc2)CC1 1.78 µM [activator, partial curve, poor fit], CCOC(=O)C1CN(C(C)(C)C)C(=O)C1=O (configuration not stated) 44.7 µM [activator, full curve, poor fit], O=C(Nc1ccc(S(=O)(=O)Nc2ncccn2)cc1)C(F)(F)F 158 µM [activator, single point], Clc1ccc(CSc2ccc(-c3cccs3)nn2)cc1 141 µM [activator, single point], O=C(O)c1cc(-c2ccc(N3CCOCC3)cc2)nn1-c1ccc(F)cc1F 100 µM [activator, single point], C/C(=C\c1ccccc1)CN1CCN(c2cccc(Cl)c2)CC1 7.08 µM [activator, partial curve, poor fit], O=C(CCN1CCOCC1)Nc1c(-c2ccccc2)c2cc(Br)ccc2[nH]c1=O 3.16 µM [activator, partial curve, poor fit], COc1ccc(CCNC(=O)CSC2=NS(=O)(=O)c3ccccc3N2)cc1OC 22.4 µM [activator, partial curve, poor fit], CCOC(=O)N1CCN(C(=O)CSc2ccc3nnc(-c4cccnc4)n3n2)CC1 17.8 µM [activator, partial curve], Cc1ccc(C(=O)OCc2cc3ccccc3[nH]c2=O)cc1 0.631 µM [activator, partial curve, poor fit], COc1cccc(NC2CC(=O)N(CCc3ccccc3)C2=O)c1 (configuration not stated) 50.1 µM [activator, single point], CN(C)CCCOC(=O)COc1ccc(C(C)(C)C)cc1 1.22 µM [activator, full curve, poor fit], C(#Cc1ccccc1)C[N+]1(CC#Cc2cccc3ccccc23)CCOCC1 126 µM [activator, single point], CN1CCN(C2(CNC(=O)c3ccc([N+](=O)[O-])cc3)CCCCC2)CC1 10 µM [activator, partial curve, poor fit], CC1(C)OC(=O)C(=NNc2ccccc2C(=O)O)C(=O)O1 56.2 µM [activator, partial curve, poor fit], CN=C(Nc1cccnc1)c1ccccc1 63.1 µM [activator, partial curve, poor fit], CCOc1ccc(C2OCCC(C)O2)cc1OC (configuration not stated) 126 µM [activator, single point], O=C(COC(=O)CCN1C(=O)c2cccc([N+](=O)[O-])c2C1=O)NCc1ccccc1 141 µM [activator, single point], CC1SC(=NC(=O)C(C)N2C(=O)c3ccccc3C2=O)NC1=O (configuration not stated) 25.1 µM [activator, partial curve, poor fit], CNS(=O)(=O)c1cccc(C(=O)Nc2cccnc2)c1 39.8 µM [activator, single point], COCCn1c(SCC(=O)Nc2ccccc2OC)nc2c(oc3ccccc32)c1=O 5.62 µM [activator, full curve, poor fit], O=C(CCS(=O)(=O)c1cccc2nonc12)N1CCN(c2ccc(F)cc2)CC1 39.8 µM [activator, single point]

activation, inconclusive:
Cc1cc2ccccn2c1C(=O)Nc1cccc(Cl)c1 40.7% [activator], CCN1CCN(C2CCCCC2NS(=O)(=O)c2ccc(Cl)cc2)CC1 (configuration not stated) 48% [activator], Cc1ccccc1C(=O)NC1CCSC1=O (configuration not stated) 34.1% [activator], CCOC(=O)C1C(c2cccs2)NC(=O)NC1(O)C(F)(F)F (configuration not stated) 66.8% [activator] [at 57.5 µM], CCc1ccc(CNC(=O)Cn2nc(-c3ccc(Cl)cc3)ccc2=O)cc1 -34.5% [activator], CC(C)CNC(=S)NNC(=O)c1ccco1 -42.2% [activator] [at 57.5 µM], CC1(C)CC(=O)C2=C(C1)N(Cc1ccccc1)C(=O)C2(NC(=O)C(C)(C)C)C(F)(F)F (configuration not stated) 30.5% [activator] [at 57.5 µM], Cc1nn2c(N3CCN(C)CC3)c3c(nc2c1-c1ccccc1)CCCC3 2.14% [activator], CCOc1cc2[nH]c(=O)n(CCCCCC(=O)NC3CCCC3)c(=O)c2cc1OCC 32.6% [activator], Cc1cc(=O)c(C(=O)Nc2cccc(C(=O)NC3CC3)c2)nn1-c1ccccc1Cl -92.8% [activator], O=C(O)c1ccccc1-n1cnnn1 34% [activator], NC(=S)NC1CC2CC1C1C=CCC21 (configuration not stated) 43% [activator]

activation, inactive:
O=C(NCc1cccnc1)C(=O)c1c[nH]c2ccccc12 -31.1%, CN(C)c1ccc(/C=C2\SC(N3CCCCC3)=NC2=O)cc1 -51.4%, O=C(CCN1C(=O)/C(=C/c2cccs2)SC1=S)Nc1ccccc1O -16.4%, O=C(Nc1nc(-c2cccs2)cs1)c1ccc(Cl)s1 -52.8%, COc1ccc(OC)c(C2CC(=O)Nc3c2c(=O)n(C)c2ncnn32)c1 (configuration not stated) -1.25%

outcome, inactive:
CCc1cccc(CC)c1NC(=O)CN(C)S(=O)(=O)c1ccc2c(c1)n(C)c(=O)c(=O)n2C, COc1cc(C2C(C#N)=C(N)OC3=C2C(=O)CC(C)(C)C3)cc2c1OCO2 (configuration not stated), O=[N+]([O-])c1ccc(/C=C/c2ccncc2)cc1, COc1ccc2oc(C(=O)OCC(=O)N3C(C)CCCC3C)c(C)c2c1 (configuration not stated), O=C(O)c1ccc(Cn2cc(/C=C\[N+](=O)[O-])c3ccccc32)o1, CCc1ccc(C(=O)NCc2ccc(Cl)cc2)cc1, O=C(CCc1ccccc1)N1CCc2c([nH]c3ccccc23)C1c1ccc(Cl)cc1 (configuration not stated), COc1ccc(OCC(=O)Nc2ccc3c(c2)nc(CCN2CCC(C)CC2)n3C)cc1, Cc1ccc(S(=O)(=O)N(C)C)cc1NC(=O)Nc1ccccc1F, COc1ccc(N2CCN(C(c3ccccc3OC)c3nnnn3C3CCCC3)CC2)cc1 (configuration not stated)
